These are yes or no findings as the source states them, for the method shown. In cells and extracts the contact can be indirect. A result given as binding can be weak or reduced; the word gives no strength.
Molecular target: DNAH10 (dynein axonemal heavy chain 10), mouse (mouse (endogenous in lung tissue))
Assay: co-IP; 3 µg antibody (rabbit IgG as control) on Protein A/G magnetic beads; extracted proteins from mouse lung tissues, overnight at 4 °C; 50 mM Tris, 150 mM NaCl, 0.3% Tween 20, pH 7.5; immunoblot

binding: binds
B1: CFAP57, mouse (protein, UniProt Q9D180 1-1249)
chain: MSTVVAQALHVFGLRPHVTNNVFFFDEQIIIFPSGNHCVKYNIDQKWQKFIAGSDKSQGMLALAISPNRRYLAISETVQEKPAVTIYELSSIPCRKRKVLNNFDFQVQKFTSMAFSPDSKYLLTQTSPPDSNLVYWLWEKQKVMAIIKADSQNNPIYQVSISSQDNSQVCITGSGVFKLLRFAEGTLKQINFQRGESSNYLAHAWVSEDRVIVGTDTGKLFLFESGDQRWETSIMVKESTSSRSLEVIQESESLIEFPPLSSPVSSVERMDITTNTQQQAMPQVFAIAAYSKGFACSAGPGRVLLFEKVEEKDFYRESREIRIPTDQQSNDPSQSDKQDVLCLCFSPSEETLIASTNKNQLYSITMSLTEISKGEAAHFEYLLYPLHSASITGLDTCIRKPLIATCSLDRSVRIWNYESNTLELYKEYQEEAYTVSLHPSGHYIVVGFADKLRLMNLLIDDIRPFKEYSVRGCKECSFSNGGHLFAAVNGNVIHIFTTTSLENINILKGHTGKIRSLVWNLDDSKLVSAGTDGAVYEWNLSTGKRETECVLKSCSYNSVTTSPDAKVIFAVGSDQTLKEISDSLILREIPAFDVIYTSITISHSGRMIFVGTSVGTIRAMKYPLSLQKEYNEYQAHAGPVMKMLLTFDDQFLLTVGEDGCLFTWKVFDKDGRGIKREREVGFAEEVLVTKTDMEEKAQIMLELKTRVEELKMENEYQLRLKDMNYTEKIKELTDKFIQEMESLKTKNQVLKTEKEKQDISHRERLEELVDKQTRELQDLECCNNQKLLLEYEKYQELQLKSQRMQEEYEKQLRDNDETKSQALEELTEFYEAKLQEKTGLLEEAQEDVRQQLREFEETKKQIEEDEDREIQDIKTKYERKLRDEKESNLRLKGETGIMRKKFSSLQKEIEERTNDIELLKSEQMKLQGIIRSLEKDIQGLKREIQERDETIQDKEKRIYDLKKKNQELEKFKFVLDYKIKELKKQIEPRENEIKVMKEQIQEMEAELERFHKQNTQLELNITELLQKLRATDQEMRKEQQKERDLEALVRRFKTDLHNCVAYIQEPGLLKEKIRGLFEKYVQRADMVEIAGLNSDLQQEYARQREHLERNLATLKKKVIKEGELHRTDYVRIMQENVSLIKEINELRRELKLTRSQIYDLESALKVSKKTRSQEVPESVISKDVVGSTSTMRLNEQEETGRIIEMQRLEIRRLRDQIQEQEQVPGFHTIAGVRLPSIVDSDVDFEVHTK

From publication PMC12403265
